Assay results as given in patent US20140105915A1.
Positions count from the first letter of the chain named. Results are given in words; binding and its absence hold for the method and conditions named. Some binding calls cover weakened binding; strength is not graded here. For some assays here: Tags and fused reporters may be left off the sequences shown. Blank lines part the entries; values can stand above or below the binder they belong to.

Amino acid sequences for entries named in this document (tags omitted). Residues count along the entry.
BCMA-Fc (Q02223, residues 1-54): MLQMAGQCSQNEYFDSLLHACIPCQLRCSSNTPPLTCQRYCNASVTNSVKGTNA
recombinant human BCMA (US Biological, B0410) (Q02223, residues 5-54): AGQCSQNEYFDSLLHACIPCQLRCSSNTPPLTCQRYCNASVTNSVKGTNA

How the values were obtained:
BCMA-Fc [1] = molecular target: BCMA-Fc (UniProt Q02223); experiment: Biacore, CA8 chimera captured on protein A, BCMA-Fc injected
BAFF-R-Fc [2] = molecular target: T1, BAFF-R-Fc (UniProt Q96RJ3); experiment: Biacore, CA8 chimera captured on protein A, BAFF-R-Fc injected
T1 sequence (looked up): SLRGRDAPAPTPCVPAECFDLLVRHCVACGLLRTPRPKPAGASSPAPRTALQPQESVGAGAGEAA

TACI-Fc [3] = molecular target: T2, TACI-Fc (UniProt O14836); experiment: Biacore, CA8 chimera captured on protein A, TACI-Fc injected
T2 sequence (looked up): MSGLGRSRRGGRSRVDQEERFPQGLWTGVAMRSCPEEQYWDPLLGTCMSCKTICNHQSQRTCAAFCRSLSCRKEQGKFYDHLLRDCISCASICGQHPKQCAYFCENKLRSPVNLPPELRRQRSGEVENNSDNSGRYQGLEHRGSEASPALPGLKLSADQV

BAFF-R-Fc [4] = molecular target: T1, BAFF-R-Fc; experiment: Biacore, CA8 chimera captured on protein A, Fc fusion injected
TACI-Fc [5] = molecular target: T2, TACI-Fc; experiment: as above
[6] = molecular target: cyno BCMA on HEK293 cells (cyno); experiment: FMAT, HEK293 cells transfected with cyno BCMA, anti-human IgG FMAT Blue detection
BCMA-Fc [7] = molecular target: BCMA-Fc (UniProt Q02223); experiment: Biacore, CA8 chimera captured on protein A, BCMA-Fc injected at 2.5 µg/ml
[8] = molecular target: cyno BCMA on HEK293 cells (cyno); experiment: FMAT, cyno BCMA transfected HEK293 cells
[9] = molecular target: recombinant human BCMA (US Biological, B0410) (human) (UniProt Q02223); experiment: SPR Biacore T100, mAb captured on Protein A, 37C
[10] = molecular target: recombinant human BCMA (US Biological, B0410) (human) (UniProt Q02223); experiment: SPR Biacore T100, mAb captured on Protein A, 25C and 37C

B1: CA8 chimera (antibody, V domains shown)
VH: EVQLQQSGAVLARPGASVKMSCKGSGYTFTNYWMHWVKQRPGQGLEWIGATYRGHSDTYYNQKFKGKAKLTAVTSTSTAYMELSSLTNEDSAVYYCTRGAIYNGYDVLDNWGQGTLVTVSS
VL: DIQLTQTTSSLSASLGDRVTISCSASQDISNYLNWYQQKPDGTVELVIYYTSNLHSGVPSRFSGSGSGTDYSLTIGYLEPEDVATYYCQQYRKLPWTFGGGSKLEIKR
- binding (BCMA-Fc [1]): binds
- binding (BAFF-R-Fc [2]): no binding (tested: 2.5µg/ml)
- binding (TACI-Fc [3]): no binding (tested: 2.5µg/ml)
- binding (BAFF-R-Fc [4]): no binding
- binding (TACI-Fc [5]): no binding
- binding [6]: binds
- binding (BCMA-Fc [7]): binds
- binding [8]: binds

B3: CA8 humanised J7M0 (antibody, human IgG1, kappa, V domains shown)
VH: QVQLVQSGAEVKKPGSSVKVSCKASGYTFTNYWMHWVRQAPGQGLEWMGATYRGHSDTYYNQKFKGRVTITADKSTSTAYMELSSLRSEDTAVYYCARGAIYDGYDVLDNWGQGTLVTVSS
VL: DIQMTQSPSSLSASVGDRVTITCSASQDISNYLNWYQQKPGKAPKLLIYYTSNLHSGVPSRFSGSGSGTDFTLTISSLQPEDFATYYCQQYRKLPWTFGQGTKLEIKR
- binding [9]: binds

B5: CA8 humanised J7M1 (antibody, human IgG1, kappa, V domains shown)
VH: B3 VH
VL: B3 VL with F71Y
- binding [9]: binds

B6: CA8 humanised J7M2 (antibody, human IgG1, kappa, V domains shown)
VH: B3 VH
VL: B3 VL with M4L, K45E, L47V, F71Y
- binding [9]: binds

B9: CA8 humanised J8M0 (antibody, human IgG1, kappa, V domains shown)
VH: B3 VH with A97T
VL: B3 VL
- binding [9]: binds

More lines, now with the values ahead:

- binding [9]: binds
B2: CA8 humanised J9M1 (antibody, human IgG1, kappa, V domains shown)
VH: B3 VH with A24G, M48I, V68A, I70L, K74T, A97T
VL: B3 VL with F71Y

- binding [9]: binds
B4: CA8 humanised J8M1 (antibody, human IgG1, kappa, V domains shown)
VH: B3 VH with A97T
VL: B3 VL with F71Y

- binding [9]: binds
B7: CA8 humanised J8M2 (antibody, human IgG1, kappa, V domains shown)
VH: B3 VH with A97T
VL: B3 VL with M4L, K45E, L47V, F71Y

- binding [9]: binds
- binding [10]: binds
B8: CA8 humanised J9M0 (antibody, human IgG1, kappa, V domains shown)
VH: B3 VH with A24G, M48I, V68A, I70L, K74T, A97T
VL: B3 VL
